# Out of some 340,000 compounds screened, about 6,200 (1.8%) were called active. Inconclusive means that the source gave no clear call. Such entries were picked first, then a sample of the others. Calls follow the shape of the dose curve; as a rule, active = well fitted activation curve with a large enough effect; inconclusive = small, poorly fitted or top-dose-only effect; inactive = no such curve, though single readings can be large or run the other way. Potencies beside an inconclusive call are fits to weak or partial responses and may not hold up.
# Assay: A quantitative high throughput screen for small molecules that induce DNA re-replication in SW480 colon adenocarcinoma cells. Also: nearly all actives have a fitted effect of over 55% in size. As to re-replication activation: % of control where 0% means no effect.
# Details: Hoechst DNA content imaging, 48 h; re-replication activation: at 46.1 µM (top of the series) unless noted
# Outline: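 Treated cells incubate 48 hr (37 C, 5% CO2), are stained 40 min with Hoechst, and nuclear fluorescence is enumerated; a rise in nuclei with high DNA signal marks re-replication.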
# Potency is read from the fitted curve at half-maximal effect.
Structure (SMILES),Potency,re-replication activation
COC(=O)[C@@H]1C[C@]2(OC(=O)c3ccccc3)C=CC(=O)C[C@@H]2N1C(=O)OCc1ccccc1,active: 20.6 µM,–
CN(C)S(=O)(=O)c1cccc(CSc2cccc[n+]2[O-])c1,"inconclusive: 1.84 µM [activator, partial curve, poor fit]",–
COc1ccccc1CCNC(=O)C(=O)NCC1OCCN1C(=O)c1ccc(Cl)cc1 (stereo not given),"inconclusive: 29.1 µM [activator, partial curve, poor fit]",–
CCN1CCN(C(=O)C2CCN(c3nnc(-n4c(C)ccc4C)s3)CC2)CC1,"inconclusive: 29.1 µM [activator, single point]",–
CN(CC(=O)NCCc1ccc(S(N)(=O)=O)cc1)S(=O)(=O)c1cccc2nsnc12,"inconclusive: 29.1 µM [activator, single point]",–
Cc1c(C(=O)N2CCCc3ccccc32)oc2ccccc12,–,inactive: -0.943%
COc1ccc(C(=O)CN2C(=O)NC3(CCc4ccccc43)C2=O)cc1 (stereo not given),"inconclusive: 29.1 µM [activator, single point]",–
Cc1ccc2[nH]c3ccccc3c(=O)c2c1,"inconclusive: 18.4 µM [activator, single point]",–
COc1ccc(CN=C2NN=C(c3cccc(OC)c3)CS2)cc1,"inconclusive: 2.51 µM [activator, single point]",–
NC1=NC(=O)C2(COC(c3cccnc3)OC2)S1 (stereo not given),–,inactive: 29.9%
O=C(Nc1csc([N+](=O)[O-])c1)Nc1c(Cl)cccc1Cl,–,inactive: -9.49%
COc1ccc(C2(C(=O)NC3CCCCC3)CCOCC2)cc1OC,–,inactive: 1.44%
CCOC(=O)c1c(C)n(C)c2ccc(OCC(O)CN(CC)CC)cc12 (stereo not given),"inconclusive: 0.0291 µM [activator, full curve, poor fit]",–
O=C(NCc1ccco1)c1cc([N+](=O)[O-])ccc1N1CCOCC1,–,inactive: -4.5%
COC(=O)c1ccc(Nc2ccc3nonc3c2[N+](=O)[O-])cc1,"inconclusive: 6.51 µM [activator, single point]",–
COc1ccccc1N1CCN(Cc2ccc(Br)o2)CC1,–,inactive: -6.02%
Cc1ccc(OCCn2c(NC(=O)c3ccco3)nc3ccccc32)cc1,–,inactive: 13.4%
COc1ccc(C(=O)Nc2cc(OC)cc(OC)c2)cc1,–,inactive: -2.71%
Cc1nc(-c2cccc(S(=O)(=O)N3CCC(C)CC3)c2)cs1,–,inactive: -3.27%
COc1ccc(C(=O)c2oc3ccccc3c2NC(C)=O)cc1,–,inconclusive: 86% [activator]
CNC1=CC(=O)CC(c2ccccc2)C1 (stereo not given),"inconclusive: 23.1 µM [activator, partial curve, poor fit]",–
O=C(OC(C(=O)Nc1ccc(Cl)cc1C(F)(F)F)c1ccccc1)c1c(Cl)cccc1Cl (stereo not given),–,inactive: 2.76%
CCCn1nc(NC(=O)c2ccco2)c2cc3cc(C)ccc3nc21,active: 18.4 µM,–
COc1ccccc1Nc1nc(N)nc(CSC(=S)N2CCCCC2)n1,"inconclusive: 3.26 µM [activator, single point]",–

Structure (SMILES),Potency,re-replication activation
COc1ccc(-c2cc(N)n(S(=O)(=O)c3c(F)c(F)c(F)c(F)c3F)n2)cc1OC,"inconclusive: 9.2 µM [activator, partial curve, poor fit]",–
O=C(CSc1nc(C2CC2)nc2c1cnn2-c1ccccc1)Nc1c[nH]c(=O)[nH]c1=O,"inconclusive: 5.8 µM [activator, partial curve, poor fit]",–
COc1ccc(C(=O)CSc2nccn2C)c(OC)c1,–,inactive: -9.15%
Cc1cccc(Nc2cnn(C34CC5CC(CC(CC(=O)O)(C5)C3)C4)c(=O)c2Cl)c1,–,inactive: -13.5%
CCn1c(=O)c(NC(=O)c2ccccc2)c2n(c1=S)CCCCC2,–,inactive: -0.736%
O=C1c2ccccc2NC(c2ccc(-c3cccc(F)c3)o2)N1O (stereo not given),"inconclusive: 29.1 µM [activator, single point]",–
COC(=O)c1cccc(Oc2cccc(C(F)(F)F)c2)n1,"inconclusive: 18.4 µM [activator, single point]",–
Cc1[nH]n(-c2ccccc2)c(=O)c1/C=N/N1C(=O)c2ccc3c4c(ccc(c24)C1=O)CC3,"inconclusive: 32.6 µM [activator, partial curve, poor fit]",–
Cc1ccc(Nc2nnc(SCC(=O)NC(Cc3c[nH]c4ccccc34)C(=O)O)s2)cc1 (stereo not given),–,inactive: -15.3%
CC1CCCN(CC(=O)Nc2ccc(S(=O)(=O)N3CCCCC3)cc2)C1 (stereo not given),"inconclusive: 29.1 µM [activator, single point]",–
O=c1[nH]sc2ccccc12,"inconclusive: 18.4 µM [activator, single point]",–
CC(Sc1nc(-c2ccccc2)cc(C(F)(F)F)n1)C(=O)N1CCCCC1 (stereo not given),"inconclusive: 6.51 µM [activator, full curve, poor fit]",–
Cc1ccc(NC(=O)C(Cc2ccccc2)NC(=O)OCc2ccccc2)cc1C (stereo not given),–,inactive: 26%
COc1cc(OC)cc(-c2nc3ccccc3s2)c1,–,inactive: 0.566%
Cc1ccc(/C=C/C(O)=C2/C(=O)N(C)C3(C)CC2c2ccccc2O3)cc1 (stereo not given),"inconclusive: 18.4 µM [activator, single point]",–
Cc1ccc2nc(-c3cccc(Br)c3)cc(C(=O)NC3=NCCS3)c2c1,–,inactive: 2.75%
O=C(NCc1ccccc1Cl)c1ccc2ccccc2n1,"inconclusive: 14.6 µM [activator, single point]",–
CCn1nc(NC(=O)c2ccccn2)c2cc3cccc(C)c3nc21,"inconclusive: 3.26 µM [activator, full curve, poor fit]",–
CC(C)=CCNc1ncnc2c1c(C#N)cn2C1OC(CO)C(O)C1O (stereo not given),"inconclusive: 4.11 µM [activator, full curve]",–
C=C(C)c1nc2cc(OC)c(OC)cc2c(=O)o1,–,inactive: -1.55% [at 9.22 µM]
Cc1c(NC(=O)CSc2n[nH]c(=O)n2-c2ccccc2)c(=O)n(-c2ccccc2)n1C,"inconclusive: 0.0046 µM [activator, full curve, poor fit]",–
Cc1ccc(S(=O)(=O)N2CCC(C(=O)NCCCOC(C)C)CC2)cc1,"inconclusive: 6.51 µM [activator, full curve, poor fit]",–
Cc1ccc(C)c(NC(=O)NNC(=O)c2ccc3ccccc3c2O)c1,"inconclusive: 29.1 µM [activator, single point]",–
Cc1ccc(C)c(NC(=O)CN(C)C(=O)[C@@H](NC(=O)c2ccc(C(C)(C)C)cc2)C(C)C)c1,"inconclusive: 29.1 µM [activator, single point]",–

# In the list so far, these contain a COOH group:
Structure (SMILES),Potency,re-replication activation
Cc1cccc(Nc2cnn(C34CC5CC(CC(CC(=O)O)(C5)C3)C4)c(=O)c2Cl)c1,–,inactive: -13.5%
Cc1ccc(Nc2nnc(SCC(=O)NC(Cc3c[nH]c4ccccc34)C(=O)O)s2)cc1 (stereo not given),–,inactive: -15.3%

# Additional compounds:

Structure (SMILES),Potency,re-replication activation
O=c1ccc(N=Nc2ccccc2)ccc1O,"inconclusive: 18.4 µM [activator, single point]",–
O=C(Nc1ccc(CN2CCCCC2)cc1)Nc1ccc(Br)cc1Cl,"inconclusive: 29.1 µM [activator, single point]",–
Oc1ccc(Cl)cc1CNCC1CCCCC1,"inconclusive: 14.6 µM [activator, partial curve, poor fit]",–
COc1cc(NC(=O)c2ccc([N+](=O)[O-])o2)ccc1NC(=O)c1ccco1,"inconclusive: 0.58 µM [activator, full curve, poor fit]",–
CC(=O)c1cc(C#N)c(NCc2cc(-c3ccccc3)no2)nc1C,"inconclusive: 29.1 µM [activator, single point]",–
COc1ccc2ncc(S(=O)(=O)c3ccccc3)c(N3CCC4(CC3)OCCO4)c2c1,"inconclusive: 20.6 µM [activator, partial curve, poor fit]",–
NS(=O)(=O)c1ccc(NC(=S)NCCc2ccccc2)cc1,"inconclusive: 4.61 µM [activator, single point]",–
CC(CNCC1CCCO1)COc1cccc2ccccc12 (stereo not given),–,inactive: 1.71%
CCCOC(=O)C1=C(C)NC2=C(C(=O)CCC2)C1c1cccc(OC)c1OC (stereo not given),–,inactive: 7.41%
CC1=C/C(=N\N=C2\NC(=O)C(CC(=O)Nc3ccccc3F)S2)CC(C)(C)C1 (stereo not given),"inconclusive: 29.1 µM [activator, single point]",–
COC(=O)C1=C(C)N(Cc2ccccc2)C(=NCc2ccc(OC)cc2)N[C@H]1c1cccc(F)c1,"inconclusive: 7.31 µM [activator, partial curve, poor fit]",–
COc1ccc(CNC(=O)COc2ccc(S(=O)(=O)N3CCOCC3)cc2C)cc1,–,inactive: 14.2%
CCOc1ccc(S(=O)(=O)NCc2ccc(Cl)cc2)c2cccnc12,"inconclusive: 32.6 µM [activator, single point]",–
COc1ccccc1OCC(=O)NN=C(Cc1ccccc1)Cc1ccccc1,"inconclusive: 0.82 µM [activator, full curve, poor fit]",–
C=CCc1c(C)c(C#N)c2nc3ccccc3n2c1N1CCCCC1,"inconclusive: 6.51 µM [activator, partial curve, poor fit]",–
COc1ccc(-c2nc3ncccn3c2Nc2ccccc2)cc1,"inconclusive: 6.51 µM [activator, single point]",–
COc1cc(NC(=O)COc2cccc3c2OC(C)(C)C3)cc(OC)c1OC,"inconclusive: 6.51 µM [activator, single point]",–
CN(C(=O)C1CC1)C1CCS(=O)(=O)C1 (stereo not given),–,inactive: -17.8%
O=C1c2ccccc2C(=O)N1Cc1cnc(N2CCN(c3ccccc3)CC2)s1,active: 18.4 µM,–
CN(CCC#N)S(=O)(=O)c1ccc2[nH]cc(C(=O)NCCc3ccccc3)c(=O)c2c1,"inconclusive: 10.3 µM [activator, partial curve, poor fit]",–
O=C(Nc1cccc(F)c1)c1cccc2c1C(=O)N(C1CCCCC1)C2,–,inactive: -6.68%
CC(C)n1cc(CN2CCC(C(=O)Nc3cccc(-c4cccc(Cl)c4)c3)CC2)cn1,active: 3.26 µM,–

# From PubChem BioAssay AID624297 (National Center for Advancing Translational Sciences (NCATS), 2012)
